In patent US20190022072A1, “USAGE OF ACETAZOLAMIDE FOR TREATING ICH, PARTICULARLY HYPERGLYCEMIC ICH” (priority 2017, published 2019):

Test: plasma glucose levels in normoglycemic and hyperglycemic rats with intracerebral hemorrhage treated with AZA
Assay type: in vivo, Wistar rats

CC(=O)Nc1nnc(S(N)(=O)=O)s1 [AZA, acetazolamide]
glucose levels of the rats (hyperglycemic (STZ) rats treated with AZA 5 mg/kg oral, day 1 post-induction of ICH): 386.75 mg/dL
glucose levels of the rats (hyperglycemic (STZ) rats treated with AZA 5 mg/kg oral, day 4 post-induction of ICH): 313.00 mg/dL
glucose levels of the rats (hyperglycemic (STZ) rats treated with AZA 5 mg/kg oral, day 7 post-induction of ICH): 381.25 mg/dL
glucose levels of the rats (normoglycemic rats treated with AZA 5 mg/kg oral, day 1 post-induction of ICH): 117.75 mg/dL
glucose levels of the rats (normoglycemic rats treated with AZA 5 mg/kg oral, day 4 post-induction of ICH): 132.25 mg/dL
glucose levels of the rats (normoglycemic rats treated with AZA 5 mg/kg oral, day 7 post-induction of ICH): 117.25 mg/dL
